Test results: article PMC4657934
These are yes or no findings as the source states them, for the method shown. Binding seen in cells or lysates may run through a third protein.

The chains behind the UniProt entries cited, without tags or fusion partners. Where a name states a change or a piece, a line headed by the entry shows the natural chain unless it says otherwise.
UniProt Q9ULZ3: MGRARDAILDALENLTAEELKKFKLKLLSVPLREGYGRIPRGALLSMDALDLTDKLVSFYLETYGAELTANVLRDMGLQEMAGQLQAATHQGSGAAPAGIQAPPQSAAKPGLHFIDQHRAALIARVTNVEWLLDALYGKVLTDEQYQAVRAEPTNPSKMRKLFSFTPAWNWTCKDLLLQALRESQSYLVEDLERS
UniProt P29466: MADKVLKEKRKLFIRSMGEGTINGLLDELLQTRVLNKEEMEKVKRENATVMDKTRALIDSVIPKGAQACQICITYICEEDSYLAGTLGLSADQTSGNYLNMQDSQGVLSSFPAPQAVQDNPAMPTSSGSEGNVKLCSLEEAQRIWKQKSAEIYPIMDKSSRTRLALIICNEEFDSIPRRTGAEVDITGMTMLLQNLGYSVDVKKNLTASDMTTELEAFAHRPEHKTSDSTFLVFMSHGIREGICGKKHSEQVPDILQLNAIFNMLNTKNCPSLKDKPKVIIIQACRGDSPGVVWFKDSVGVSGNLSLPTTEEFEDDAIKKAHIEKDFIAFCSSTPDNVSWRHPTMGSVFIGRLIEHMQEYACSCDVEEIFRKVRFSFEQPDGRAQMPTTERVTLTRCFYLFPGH

Target: apoptosis-associated speck-like complex containing a CARD (ASC), released from LPS/ATP treated THP1 cells (human (endogenous in THP1)) (UniProt Q9ULZ3)
Assay: co-IP; clarified supernatants of LPS/ATP treated THP1 cells (2x10^7 cells/ml); anti-ASC mouse monoclonal (MBL, 1:62.5) or control mouse IgG1, 2h at 4°C, protein A/G beads, washed in cold PBS; caspase-1 probed on immunoblot with YK antibody

- binding: no binding
Substance: mature caspase-1 (p20/p10), released from LPS/ATP treated THP1 cells (from UniProt P29466 120-297; P29466 317-404) (complex)
